# Data as given in PubChem BioAssay AID686937 (Drosophila RNAi Screening Center, 2013).
# Test: 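Genes whose loss weakens secretory pathway function in fly cells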 (primary screen)
# System: Drosophila S2 cells expressing secreted horseradish peroxidase
# Reagent: long dsRNA against Drosophila genes
# Timing: about 5.5 days (5 days dsRNA, then 12 h reporter induction)
# Treatment: reporter expression induced after 5 days of dsRNA, read 12 h later; inducer not stated
# Measurement: 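Chemiluminescent measurement of peroxidase in the medium 12 h after reporter induction, following 5 days of dsRNA, given as a z-score per plate; higher means more secretion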
# Reading the numbers: z-score: higher = more reporter secreted into medium
# The deposit covers about 23,000 reagents; shown is a random part of those that have a named target and a result. 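Reduced-secretion tags in replicate 1 do not always agree with the z-scores; no criterion for assigning the tags was given.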 Names joined by + are all predicted targets of the reagent. Not given: the amount of reagent.
The opening 5 entries, ahead of the listing:
target gene,dsRNA,"z-score, replicate 1","z-score, replicate 2","z-score, replicate 3","z-score, replicate 4","phenotype, replicate 1"
Ucp4B + asRNA:CR43465,DRSC02665,0,0.14,,,
CG5989,DRSC10565,0.14,0.47,,,
CG15922,DRSC15128,0.26,0.09,,,
ATPsyndelta,DRSC18248,0.17,-0.35,,,
ath,DRSC02788,-0.38,0.21,,,

The list itself, repeating the preview:
target gene,dsRNA,"z-score, replicate 1","z-score, replicate 2","z-score, replicate 3","z-score, replicate 4","phenotype, replicate 1"
Ucp4B + asRNA:CR43465,DRSC02665,0,0.14,,,
CG5989,DRSC10565,0.14,0.47,,,
CG15922,DRSC15128,0.26,0.09,,,
ATPsyndelta,DRSC18248,0.17,-0.35,,,
ath,DRSC02788,-0.38,0.21,,,
alphaSnap,DRSC11285,-6.26,-5.73,,,reduced secretion
CG34159,DRSC02885,0.91,0.28,,,
trus,DRSC15772,-0.08,-0.24,,,
CG8541,DRSC10989,0.07,0.25,,,
I-3,DRSC20479,-0.04,0.06,,,
I-2,DRSC11194,0.42,0.13,,,
CG6661 + asRNA:CR42871,DRSC10687,0.4,0.56,,,
klhl10,DRSC05274,0.38,0.24,,,
klhl10,DRSC19171,-0.01,-0.8,,,
klhl10,DRSC20750,0.17,0.09,,,
klhl10,DRSC20925,0.04,-0.05,,,
CG18518,DRSC01509,-0.42,0.19,,,
rhi,DRSC05996,-0.2,0.26,,,
eIF4H1,DRSC20276,0.42,-0.36,,,
Vrp1,DRSC04148,0.46,0.42,,,
CG43349,DRSC00039,0.46,0.59,-0.11,0.19,
Rtel1,DRSC18343,0.2,0.33,,,
CG3770,DRSC04416,-0.18,-0.21,,,
CG7706,DRSC16295,0.29,0.36,,,
CG4267,DRSC00102,-0.61,0.02,,,
CG4267,DRSC00647,0.26,0.27,,,
eEF1alpha2,DRSC14079,0.06,0.59,,,
eEF1alpha2,DRSC16658,-0.93,-1.17,,,
Lst8,DRSC18262,0.52,0.38,,,
CG13855,DRSC14705,0.28,0.53,,,
Rbbp5,DRSC11778,0.29,0.3,,,
CG8060,DRSC07064,0.58,0.52,,,
Smyd4-4,DRSC05956,0.25,0.15,,,
Alp9,DRSC10486,0.4,0.24,,,
RunxB,DRSC20395,0.46,-1.16,,,
RunxB,DRSC20525,0.37,0.46,,,
RunxB,DRSC20526,-9.01,-3.16,,,reduced secretion
CG14893,DRSC15015,0.67,0.9,,,
CG17560,DRSC15242,0.55,0.55,,,
CG42582 (retired record),DRSC20675,-0.64,-0.08,,,
kdn,DRSC18328,0.36,0.73,,,
Hs6st,DRSC14348,0.13,0.33,,,
Hs6st,DRSC15182,0.57,0.57,,,
Hs6st,DRSC15581,-0.48,0.42,0.46,0.43,
Hs6st,DRSC21732,-0.64,-0.76,,,reduced secretion
CG15368,DRSC18040,0.25,-0.39,,,
CG18765,DRSC15392,0.14,0.31,,,
Cpr67Fb,DRSC10314,0.29,0.35,,,
MBD-R2,DRSC14180,-1.75,-0.78,,,reduced secretion
CG9899,DRSC04597,0.36,0.35,,,
CG18011,DRSC06697,0.42,0.45,,,
CG18011,DRSC06706,0.48,0.41,,,
CG3176 + CR18166 + CG32817,DRSC17271,0.45,-0.44,,,
CG3176 + CR18166 + CG32817,DRSC17282,0.4,0.33,,,
CG3176 + CR18166 + CG32817,DRSC18288,0.43,0.02,,,
gsb,DRSC04692,0.23,-0.05,,,
CG14984,DRSC08442,0.17,0.2,,,
CG5800,DRSC19962,0.28,0.53,,,
blw,DRSC04675,-0.96,-0.59,,,
Phf7,DRSC20692,0.17,0.38,,,
CG13482,DRSC10024,-0.66,-0.72,,,
Nadk2,DRSC07072,0.23,0.27,,,
CG15515,DRSC15054,-0.16,0.17,,,
Pa1,DRSC19422,0.43,0.04,,,
Dnah3,DRSC08130,0.15,0.24,,,
Dnah3,DRSC08513,0.24,0.31,,,
CG15107,DRSC06534,-0.02,0.47,,,
CG34253 + lncRNA:CR32194,DRSC09531,-0.92,-0.63,,,
wit,DRSC08741,0.14,0.31,,,
Ir56d,DRSC06590,0.14,0.08,,,
Sema2a,DRSC07551,0.05,0.27,,,
Nil,DRSC15953,-0.04,-0.1,,,
Ndc80,DRSC20221,-0.29,-0.56,,,
Ndc80,DRSC21726,-2.48,0.16,,,reduced secretion
CG13068,DRSC09951,0.37,0.23,,,
Dph4,DRSC12318,0.11,0.07,,,
atlas,DRSC04183,0.39,0.51,,,
CG42323,DRSC19629,0.04,0.25,,,
CG42323,DRSC21397,0.25,0.36,,,
CG13872,DRSC06431,0.35,0.33,,,
Lar,DRSC01707,-0.11,-0.19,,,
Lar,DRSC03361,0.19,0.06,,,
